In patent US20180193454A1 (IMMUNEXT, published 2018):
Changes are numbered by the printed parent chain. No constants are given. Whether binding was seen depends on the method and setting. Some entries that bind do so weakly or less than the wild type.

The chains behind the UniProt entries cited, without tags or fusion partners.
UniProt P29965: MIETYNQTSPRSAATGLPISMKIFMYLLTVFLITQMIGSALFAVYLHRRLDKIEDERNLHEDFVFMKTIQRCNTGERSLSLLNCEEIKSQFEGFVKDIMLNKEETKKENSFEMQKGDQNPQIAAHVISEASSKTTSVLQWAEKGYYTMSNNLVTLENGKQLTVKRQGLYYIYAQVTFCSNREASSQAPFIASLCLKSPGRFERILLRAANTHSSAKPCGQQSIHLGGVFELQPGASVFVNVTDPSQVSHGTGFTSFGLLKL

B1: IDEC-131, humanized anti-human CD154 IgG1 antibody (antibody, V domains shown)
VH: EVQLQESGPGLVKPSETLSLTCTVSGDSITNGFWIWIRKPPGNKLEYMGYISYSGSTYYNPSLKSRISISRDTSKNQFSLKLSSVTAADTGVYYCACRSYGRTPYYFDFWGQGTTLTVSS
VL: DIVMTQSPSFLSASVGDRVTITCKASQNVITAVAWYQQKPGKSPKLLIYSASNRYTGVPDRFSGSGSGTDFTLTISSLQPEDFADYFCQQYNSYPYTFGGGTKLEIK
notes: Humanized human IgG1 derived from mouse antibody 24-31
B2: INX021 (variant 21), humanized anti-human CD154 IgG1 antibody derived from IDEC-131 (antibody, V domains shown)
VH: B1 VH with C97Y, F109Y
VL: B1 VL with Q27S, V29L, I30G, T31H, N92D, S93D

Legend:
[1] = molecular target: CD154 expressed on cells (CD154 expressing Jurkat cells; T cell CD154) (UniProt P29965); test: binding to CD40L (CD154) expressing Jurkat cells, readout % normalized mean MFI (panel title 'CD40L Jurkat Binding'; legend paragraph 14 calls it a BIAcore assay)
[2] = molecular target: CD154 expressed on cells (CD154 expressing Jurkat cells; T cell CD154) (UniProt P29965); test: binding to CD154 expressing Jurkat cells (legend calls it BIAcore binding assays), FIG. 3

| Binder | binding [1] | binding [2] |
| --- | --- | --- |
| B1 | binds | binds |
| B2 | binds | – |
